Data taken from article PMC2970552, “Structural Studies of the Tandem Tudor Domains of Fragile X Mental Retardation Related Proteins FXR1 and FXR2” (PLoS ONE, 2010).
No constants are given. Whether binding was seen depends on the method and setting.

The chains behind the UniProt entries cited, without tags or fusion partners. Residues count along the entry.
UniProt P51116, residues 14-137: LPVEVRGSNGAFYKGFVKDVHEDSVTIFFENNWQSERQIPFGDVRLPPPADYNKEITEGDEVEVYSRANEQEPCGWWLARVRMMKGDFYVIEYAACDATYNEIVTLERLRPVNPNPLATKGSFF
UniProt P51114, residues 2-132: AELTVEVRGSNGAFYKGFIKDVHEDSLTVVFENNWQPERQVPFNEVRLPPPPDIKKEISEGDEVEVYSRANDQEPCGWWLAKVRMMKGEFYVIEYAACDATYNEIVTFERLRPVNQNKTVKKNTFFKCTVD

Legend:
H3K27me3 peptide [1] = biological target: T1, H3K27me3 peptide; assay: condition: FXR2 stock 2.4 mM, serial twofold dilutions; fluorescence polarisation; fluoresceinated peptide at 100 nM; FXR1 (stock 1.03 mM) or FXR2 (stock 2.4 mM) in serial twofold dilutions from 1/2 to 1/1024; 20 mM Tris-Cl pH 8.0, 50 mM NaCl, 1 mM DTT; room temperature, 30 minutes; both purified
T1 sequence (peptide, trimethyl-lysine at K27 (Kme3); fluorescein (position not stated)): QLATKAARKSAPA

H3K36me3 peptide = biological target: T2, H3K36me3 peptide; assay: as above
T2 sequence (peptide, trimethyl-lysine at K36 (Kme3)): PATGGVKKPHRY

H3K37me3 peptide = biological target: T3, H3K37me3 peptide; assay: as above
T3 sequence (peptide, trimethyl-lysine at K37 (Kme3)): PATGGVKKPHRY

H3K79me3 peptide = biological target: T4, H3K79me3 peptide; assay: as above
T4 sequence (peptide, trimethyl-lysine at K79 (Kme3)): EIAQDFKTDLRY

H3K27me3 peptide [2] = biological target: T1, H3K27me3 peptide; assay: condition: FXR1 stock 1.03 mM, serial twofold dilutions; fluorescence polarisation; fluoresceinated peptide at 100 nM; FXR1 (stock 1.03 mM) or FXR2 (stock 2.4 mM) in serial twofold dilutions from 1/2 to 1/1024; 20 mM Tris-Cl pH 8.0, 50 mM NaCl, 1 mM DTT; room temperature, 30 minutes; both purified

binding (H3K27me3 peptide [1])	binding (H3K36me3 peptide)	binding (H3K37me3 peptide)	binding (H3K79me3 peptide)	binding (H3K27me3 peptide [2])	Substance
no binding	no binding	no binding	no binding		FXR2 tandem Tudor domains (amino acids 14 to 137 of Fragile X Mental Retardation Syndrome-related Protein 2) (from UniProt P51116 14-137) (domain or fragment)
				no binding	FXR1 tandem Tudor domains (amino acids 2 to 132 of Fragile X Mental Retardation Syndrome-related Protein 1) (from UniProt P51114 2-132) (domain or fragment)
